Measured values reported in publication PMC6251927.

Chains of the proteins cited; added tags and fusions are not shown. Lines headed by an entry give the natural chain unless they say otherwise; changes in a name come on top.
UniProt Q9VUH8: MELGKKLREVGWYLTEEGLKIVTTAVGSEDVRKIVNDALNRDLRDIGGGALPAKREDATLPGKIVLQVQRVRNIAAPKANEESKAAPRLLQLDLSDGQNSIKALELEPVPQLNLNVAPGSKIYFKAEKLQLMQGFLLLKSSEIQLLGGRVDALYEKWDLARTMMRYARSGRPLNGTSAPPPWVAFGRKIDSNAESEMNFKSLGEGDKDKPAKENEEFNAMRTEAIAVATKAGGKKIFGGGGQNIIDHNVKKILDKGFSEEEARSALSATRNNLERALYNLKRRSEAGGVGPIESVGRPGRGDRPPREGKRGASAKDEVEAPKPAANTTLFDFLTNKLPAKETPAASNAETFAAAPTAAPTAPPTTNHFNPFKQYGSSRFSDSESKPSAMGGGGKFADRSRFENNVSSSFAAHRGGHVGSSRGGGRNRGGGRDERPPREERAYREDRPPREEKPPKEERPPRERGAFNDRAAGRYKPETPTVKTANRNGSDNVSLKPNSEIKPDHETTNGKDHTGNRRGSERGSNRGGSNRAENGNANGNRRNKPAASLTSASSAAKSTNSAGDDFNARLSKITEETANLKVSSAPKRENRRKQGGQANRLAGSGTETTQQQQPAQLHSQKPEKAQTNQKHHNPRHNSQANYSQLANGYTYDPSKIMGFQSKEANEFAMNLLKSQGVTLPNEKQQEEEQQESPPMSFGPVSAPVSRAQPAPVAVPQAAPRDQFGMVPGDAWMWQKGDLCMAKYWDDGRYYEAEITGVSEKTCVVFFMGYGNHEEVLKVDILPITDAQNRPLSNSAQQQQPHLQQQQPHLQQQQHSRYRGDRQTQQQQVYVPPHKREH

B1: Argonaute 2 (AGO2) (protein, UniProt Q9VUQ5 1-1214)
chain: MGKKDKNKKGGQDSAAAPQPQQQQKQQQQRQQQPQQLQQPQQLQQPQQLQQPQQQQQQQPHQQQQQSSRQQPSTSSGGSRASGFQQGGQQQKSQDAEGWTAQKKQGKQQVQGWTKQGQQGGHQQGRQGQDGGYQQRPPGQQQGGHQQGRQGQEGGYQQRPPGQQQGGHQQGRQGQEGGYQQRPSGQQQGGHQQGRQGQEGGYQQRPPGQQQGGHQQGRQGQEGGYQQRPSGQQQGGHQQGRQGQEGGYQQRPPGQQQGGHQQGRQGQEGGYQQRPPGQQQGGHEQGRQGQEGGYQQRPSGQQQGGHQQGRQGQEGGYQQRPSGQQQGGHQQGRQGQEGGYQQRPSGQQQGGHQQGRQGQEGGYQQRPPGQQPNQTQSQGQYQSRGPPQQQQAAPLPLPPQPAGSIKRGTIGKPGQVGINYLDLDLSKMPSVAYHYDVKIMPERPKKFYRQAFEQFRVDQLGGAVLAYDGKASCYSVDKLPLNSQNPEVTVTDRNGRTLRYTIEIKETGDSTIDLKSLTTYMNDRIFDKPMRAMQCVEVVLASPCHNKAIRVGRSFFKMSDPNNRHELDDGYEALVGLYQAFMLGDRPFLNVDISHKSFPISMPMIEYLERFSLKAKINNTTNLDYSRRFLEPFLRGINVVYTPPQSFQSAPRVYRVNGLSRAPASSETFEHDGKKVTIASYFHSRNYPLKFPQLHCLNVGSSIKSILLPIELCSIEEGQALNRKDGATQVANMIKYAATSTNVRKRKIMNLLQYFQHNLDPTISRFGIRIANDFIVVSTRVLSPPQVEYHSKRFTMVKNGSWRMDGMKFLEPKPKAHKCAVLYCDPRSGRKMNYTQLNDFGNLIISQGKAVNISLDSDVTYRPFTDDERSLDTIFADLKRSQHDLAIVIIPQFRISYDTIKQKAELQHGILTQCIKQFTVERKCNNQTIGNILLKINSKLNGINHKIKDDPRLPMMKNTMYIGADVTHPSPDQREIPSVVGVAASHDPYGASYNMQYRLQRGALEEIEDMFSITLEHLRVYKEYRNAYPDHIIYYRDGVSDGQFPKIKNEELRCIKQACDKVGCKPKICCVIVVKRHHTRFFPSGDVTTSNKFNNVDPGTVVDRTIVHPNEMQFFMVSHQAIQGTAKPTRYNVIENTGNLDIDLLQQLTYNLCHMFPRCNRSVSYPAPAYLAHLVAARGRVYLTGTNRFLDLKKEYAKRTIVPEFMKKNPMYFV

Experiments:
[1] = molecular target: T1, HA-tagged AGO2 (Drosophila) (UniProt Q9VUQ5); assay: co-IP; HA antibody IP from S2 cells transfected with HA-tagged p68, VIG or AGO2, immunoblotting (reciprocal IP-Western)
T1 sequence: B1 chain

[2] = molecular target: T2, HA-tagged VIG (Drosophila) (UniProt Q9V426); assay: as above
T2 sequence: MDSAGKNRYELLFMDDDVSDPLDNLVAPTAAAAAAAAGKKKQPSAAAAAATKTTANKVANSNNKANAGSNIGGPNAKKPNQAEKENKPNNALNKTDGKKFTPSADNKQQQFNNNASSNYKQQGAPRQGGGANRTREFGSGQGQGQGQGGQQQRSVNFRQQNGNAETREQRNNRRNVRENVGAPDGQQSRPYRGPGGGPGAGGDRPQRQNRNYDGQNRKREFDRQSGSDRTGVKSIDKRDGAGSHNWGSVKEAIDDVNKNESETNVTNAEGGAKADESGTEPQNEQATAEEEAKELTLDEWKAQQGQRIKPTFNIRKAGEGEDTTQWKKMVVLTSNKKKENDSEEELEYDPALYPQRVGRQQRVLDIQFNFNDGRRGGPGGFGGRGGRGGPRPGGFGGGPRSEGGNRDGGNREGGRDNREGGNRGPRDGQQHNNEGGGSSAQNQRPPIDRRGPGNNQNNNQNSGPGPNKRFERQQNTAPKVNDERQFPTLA

[3] = molecular target: Flag full-length TDRD3 (Drosophila); assay: co-IP; Flag IP-Western of different Flag-TDRD3 constructs and their interacting partners from transfected S2 cells

Row | Molecule | binding [1] | binding [2] | binding [3]
1 | Drosophila TDRD3 (Tudor domain-containing 3) (from UniProt Q9VUH8) | binds | binds | 
2 | B1 |  |  | binds

Results are given in words; binding and its absence hold for the method and conditions named. Binding seen in cells or lysates may run through a third protein. Binding can be weak; no strength is given. For part of these data: Where a sequence is shown, tags or fusion partners need not be part of it.
